Hit rate of the full screen: of about 330,000 compounds, about 7,700 (2.3%) were called active. The inconclusive results got no clear call from the source; some entries with a clear call stand among them for comparison. The call rests on the fitted dose curve; in most records, active means well fitted inhibition curve with a large enough effect; inconclusive means small, poorly fitted or top-dose-only effect, or effect the other way; inactive means flat fitted curve, though single readings scatter. A potency beside an inconclusive call is a rough fit, not a confirmed value.
assay: qHTS screen for small molecules that inhibit ELG1-dependent DNA repair in human embryonic kidney (HEK293T) cells expressing luciferase-tagged ELG1; settings: HEK293T ELG1-luciferase reporter, luminescence, 16 h, DNA damage induced by 5-fluorouridine; series mostly up to 46.1 µM; further: nearly all actives have a fitted effect of over 55% in size
Outline: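 Reporter activity after DNA damage by 5-fluorouridine is monitored. Compound-treated cells incubate 16 hr at 37 °C, then ONE-Glo is added for 30 min before luminescence reading.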
Potency means the concentration at half of the fitted maximal effect.

Structure (SMILES)	Potency
O=C(c1ccc(-c2cccc(Cl)c2Cl)o1)N1CCOCC1	inconclusive: 16.4 µM [activator, partial curve, poor fit]
COc1cc(NC(=O)C2=CC(c3cccs3)=NS(=O)(=O)N2C)cc(OC)c1OC	inconclusive: 29.1 µM [inhibitor, single point]
Cc1nc([N+](=O)[O-])cn1CC(=O)c1ccc(F)cc1	inactive
O=C(Cc1ccsc1)NCc1ccccc1F	inactive
O=C(NCC(c1ccco1)N1CCN(c2ccccc2F)CC1)C1CCCCC1 (stereo unspecified)	inconclusive: 23.1 µM [inhibitor, single point]
Cn1c(=O)c([N+](=O)[O-])c(-n2cnc3ccccc32)c2ccccc21	inconclusive: 29.1 µM [activator, single point]
O=C1/C(=C/C=C/c2ccccc2)Oc2c1ccc(O)c2CN1CCN(CCO)CC1	inactive
COc1ccccc1NC(=O)Nc1ccnn1C1CCN(C(=O)c2cscn2)CC1	inconclusive: 25.9 µM [activator, single point]
CCOC(=O)c1c(N)sc2c1CCC1C(=O)N(C3CCCCC3)C(=O)C21 (stereo unspecified)	inconclusive: 29.1 µM [activator, single point]
CCOC(=O)c1ccc(NC(=S)N2CCC(O)CC2)cc1	inconclusive: 20.6 µM [activator, partial curve]
O=C(CCN1C(=O)/C(=C/c2ccccc2)SC1=S)NC1CCS(=O)(=O)C1 (stereo unspecified)	inactive
Cc1ccsc1C(=O)N1CCC(CO)(Cc2ccccc2)CC1	inactive
Cn1cccc1C(NC(=O)c1ccccc1)C(Cl)(Cl)Cl (stereo unspecified)	inactive
CC(=O)Nc1ccc(-n2cc(-c3ccccc3)[nH]c2=S)cc1	inconclusive: 18.3 µM [activator, partial curve, poor fit]
CCOC(=O)c1cc2[nH]c3ccccc3c2[n+](-c2ccc([N+](=O)[O-])cc2)c1N	inactive
COc1ccccc1CNC(=O)N/C=C/c1ccc(Cl)cc1	inactive
COc1cccc(NC(=O)CN(C)C(C)C(=O)Nc2ccc(S(=O)(=O)N3CCCC3)cc2)c1 (stereo unspecified)	inactive
CCOc1cccc(CNCc2cccnc2)c1OCc1ccccc1	inconclusive: 29.1 µM [inhibitor, partial curve, poor fit]
COc1ccc(-c2cn3ccc4ccccc4c3n2)cc1	inconclusive: 1.3 µM [activator, full curve]
COc1ccc2nc(SCC(=O)c3c(N)n(C4CC4)c(=O)[nH]c3=O)[nH]c2c1	inconclusive: 9.2 µM [activator, partial curve]
CSc1cccc(NC(=S)N(CCC(C)C)C2CCN(C(C)C)CC2)c1	inactive
C/C(=N\NC(=O)c1ccc(O)cc1)c1cc2ccccc2o1	inconclusive: 20.6 µM [activator, partial curve]
O=C(Cc1ccc(Cl)cc1)Nc1nc2ccccc2[nH]1	inconclusive: 18.4 µM [activator, partial curve, poor fit]
COc1ccccc1C(=O)Nc1ccc2c(C)cc(=O)oc2c1	inconclusive: 8.2 µM [activator, partial curve]

Structure (SMILES)	Potency
Cc1ccc(NC(=O)Cc2cccs2)cc1Cl	inconclusive: 7.94 µM [activator, partial curve, poor fit]
Cc1c(C#N)c2ccccc2n1CC(=O)N1CCCc2ccccc21	inconclusive: 14.6 µM [inhibitor, partial curve, poor fit]
C=CCC(=O)N1CCC(n2nccc2NC(=O)CCOc2ccccc2)CC1	inconclusive: 20.6 µM [activator, single point]
CCn1c2ccccc2c2cc(NC(=O)COc3ccccc3OC)ccc21	inconclusive: 9.2 µM [inhibitor, partial curve]
Cc1ccc(N2CN(Cc3ccco3)CNC2=S)cc1	inactive
Cc1cccc(-n2nc(C(=O)c3ccco3)cc(-c3nc4ccccc4[nH]3)c2=N)c1	active: 13 µM
CCN(CCO)C(=O)c1ccc2nc(Cc3cccc(Cl)c3)oc2c1	inactive
CCOC(=O)C1CCCN(C(=O)c2ccccc2NC(=O)C2=C(C)OCCS2)C1 (stereo unspecified)	inactive
O=C(N/C(=C\c1ccccc1)C(=O)N1CCOCC1)c1ccccc1Br	inconclusive: 23.1 µM [activator, partial curve, poor fit]
CCOC(=O)/C=C/c1cnn(-c2ccccc2)c1	inconclusive: 2.91 µM [activator, full curve]
CS(=O)(=O)c1sc(C(=O)NC(=O)Nc2cccc(C(F)(F)F)c2)c2c1C=CCC2	inactive
CCN(CC(=O)Nc1ccc(OC)c(Cl)c1)CC(=O)NC(C)C	inactive
O=C(c1nn(Cc2ccccc2)c(=O)c2ccccc12)N1CCN(c2ccccn2)CC1	inconclusive: 29.1 µM [inhibitor, single point]
CC1(C)Cc2c(c(-c3ccco3)nc3sc4c(NCCO)ncnc4c23)CO1	inconclusive: 18.3 µM [inhibitor, partial curve]
CCC(=O)c1ccccc1OCCCCn1cncn1	inactive
COc1ccc(NC(=O)c2sc3nc(-c4cccnc4)ccc3c2N)cc1OC	inactive
Cc1nn(CC(=O)N2CCCc3ccccc32)c(C)c1[N+](=O)[O-]	inconclusive: 16.4 µM [activator, partial curve, poor fit]
CSc1cccc(NC(=O)CCCNC(=O)c2ccc(Cl)cc2)c1	inactive
O=[N+]([O-])c1ccc(COc2ccc(CNc3ccccc3)cc2)cc1	inconclusive: 29.1 µM [activator, single point]
CCCC(=O)Nc1nc(C)c(-c2csc(Nc3ccccc3OC)n2)s1	active: 23.1 µM
O=S(=O)(NCCc1ccccn1)c1ccc(OC(F)(F)F)cc1	inactive
Cc1ccccc1-c1nc2cc(N)ccc2o1	inconclusive: 5.8 µM [activator, partial curve]
COc1ccccc1C(=O)NNC(=O)c1ccncc1	inconclusive: 23.1 µM [activator, single point]
Cc1nn(-c2ccccc2)nc1C(=O)Nc1ccc2[nH]ncc2c1	inactive

Structure (SMILES)	Potency
Clc1ccc2nc(N3CCCCC3)sc2c1	inconclusive: 4.61 µM [activator, partial curve]
O=C(CSc1ncnc2c1cnn2-c1cccc(Cl)c1)NCC1CCCO1 (stereo unspecified)	inactive
O=C(COc1ccc([N+](=O)[O-])cc1)Nc1ccc(C(=O)NCc2cccnc2)cc1	inconclusive: 23.1 µM [inhibitor, single point]
CCN(CC)S(=O)(=O)c1ccc(C(=O)NNc2nc(-c3ccccc3)c3cc(Br)ccc3n2)cc1	active: 23.1 µM
CCS(=O)(=O)NC(C)C(c1cccs1)N1CCN(c2ccc(OC)cc2)CC1 (stereo unspecified)	inconclusive: 23.1 µM [inhibitor, partial curve, poor fit]
CC(=O)n1nc(-c2ccc(Cl)cc2)nc1NCc1ccco1	inconclusive: 8.2 µM [activator, partial curve]
N#Cc1c(/N=C/c2ccc(-c3ccccc3C(=O)O)o2)sc2c1CCCC2	inconclusive: 9.2 µM [activator, partial curve]
O=C(CN1CCN(c2ccccc2O)CC1)Nc1ccc(S(=O)(=O)N2CCCCCC2)cc1	inconclusive: 20.6 µM [inhibitor, single point]
COc1ccc2[nH]c3c(C)c4ccncc4c(C)c3c2c1	inconclusive: 9.2 µM [inhibitor, partial curve, poor fit]
Cc1ccc(NC(=O)Cc2ccc(F)cc2)cc1	inconclusive: 20.6 µM [activator, single point]
C/C(=N\Nc1nccnc1Cl)c1ccc(Cl)c(Cl)c1	inactive
Cc1ccc2[nH]c(=O)c(CN(C)C(=O)c3cccs3)cc2c1	inconclusive: 23.1 µM [activator, single point]
Cc1nc2sc(C(=O)OC(C)C)c(N)c2c(C)c1C	inconclusive: 3.66 µM [activator, single point]
CN(CC(=O)N1CCCCCC1)S(=O)(=O)c1ccc(F)cc1	inconclusive: 20.6 µM [activator, partial curve]
N#C/C(=C\c1ccc(-c2ccc(Br)cc2)o1)C(=O)NCCc1c[nH]c2ccccc12	inconclusive: 32.6 µM [inhibitor, single point]
CCOc1ccc(Cn2c(SCCCCC#N)nc3c2c(=O)n(C)c(=O)n3C)cc1OCC	inconclusive: 23.1 µM [inhibitor, partial curve]
O=[N+]([O-])c1cccnc1N1CCC(c2cc(-c3ccc(Cl)cc3)n[nH]2)CC1	inconclusive: 29.1 µM [inhibitor, single point]
Cn1c(=O)c2c(nc(NCCNC(=O)c3ccco3)n2Cc2ccc(Cl)cc2Cl)n(C)c1=O	inconclusive: 29.1 µM [inhibitor, single point]
COc1ccc(C2(CNC(=O)c3ccc(Br)o3)CCOCC2)cc1	inconclusive: 16.4 µM [inhibitor, partial curve, poor fit]
O=S(=O)(c1ccccc1)c1nc(-c2ccccc2)oc1N1CCCC1	inactive
CN(CC(=O)Nc1ccccc1Br)C(=O)CN(C)C1CCCCC1	inconclusive: 16.4 µM [activator, single point]
c1ccc(C2=NNC(=NC3CC3)SC2)cc1	inconclusive: 1.46 µM [activator, partial curve]
Cc1cccc(N=C2NC(=O)/C(=C3/C(=O)N(C)c4ccccc43)S2)c1C	inconclusive: 18.4 µM [inhibitor, single point]

Arranged by number of heavy atoms (smallest number first): some entries from above
Structure (SMILES)	Potency
Clc1ccc2nc(N3CCCCC3)sc2c1	inconclusive: 4.61 µM [activator, partial curve]
Cc1ccc2[nH]c(=O)c(CN(C)C(=O)c3cccs3)cc2c1	inconclusive: 23.1 µM [activator, single point]
CSc1cccc(NC(=O)CCCNC(=O)c2ccc(Cl)cc2)c1	inactive
CC1(C)Cc2c(c(-c3ccco3)nc3sc4c(NCCO)ncnc4c23)CO1	inconclusive: 18.3 µM [inhibitor, partial curve]

From PubChem BioAssay AID504467 (National Center for Advancing Translational Sciences (NCATS), 2011)
